In US20160326257A1 (PIERRE FABRE MEDICAMENT, published 2016):
No constants are given. Whether binding was seen depends on the method and setting. Some results given as binding are weak or reduced against the parent protein; the word gives no strength.

Sequences of proteins named here, by UniProt entry; tags and fusion partners are left off. A change or cut given only in a name is not applied to a line headed by its entry.
UniProt P78536: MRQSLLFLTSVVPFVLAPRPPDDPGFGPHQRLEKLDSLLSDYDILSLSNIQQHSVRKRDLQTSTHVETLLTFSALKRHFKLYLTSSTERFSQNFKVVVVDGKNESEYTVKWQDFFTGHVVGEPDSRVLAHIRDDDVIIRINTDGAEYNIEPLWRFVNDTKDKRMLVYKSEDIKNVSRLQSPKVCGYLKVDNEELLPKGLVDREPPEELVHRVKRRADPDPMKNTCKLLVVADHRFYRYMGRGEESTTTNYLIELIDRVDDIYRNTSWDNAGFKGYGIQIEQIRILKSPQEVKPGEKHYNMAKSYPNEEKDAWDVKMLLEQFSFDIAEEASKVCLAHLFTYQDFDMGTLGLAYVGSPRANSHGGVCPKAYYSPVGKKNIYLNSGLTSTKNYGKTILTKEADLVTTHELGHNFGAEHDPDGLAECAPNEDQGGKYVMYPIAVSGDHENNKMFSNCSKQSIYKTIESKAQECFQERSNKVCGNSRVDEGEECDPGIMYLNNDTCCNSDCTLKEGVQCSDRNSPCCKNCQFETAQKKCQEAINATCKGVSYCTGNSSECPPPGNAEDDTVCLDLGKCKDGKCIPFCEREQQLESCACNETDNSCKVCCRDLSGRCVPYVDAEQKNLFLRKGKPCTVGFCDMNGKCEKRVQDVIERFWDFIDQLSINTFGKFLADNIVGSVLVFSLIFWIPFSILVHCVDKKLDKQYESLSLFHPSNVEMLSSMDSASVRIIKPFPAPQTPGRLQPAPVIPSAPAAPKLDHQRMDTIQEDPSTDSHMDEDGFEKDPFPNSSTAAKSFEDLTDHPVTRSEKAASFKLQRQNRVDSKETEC

Key:
[1] = target: H1-671 (P-C-D-MPD) human ADAM17 human Fc fusion (human) (UniProt P78536); experiment: SPR Biacore X100, m1022C3 captured on anti-mouse antibody, construct at 250 nM
[2] = target: H457-671 (D-MPD) human ADAM17 human Fc fusion (human) (UniProt P78536); experiment: as above
[3] = target: H1-671 (P-C-D-MPD) human ADAM17 human Fc fusion (human) (UniProt P78536); experiment: Western blot, non-reducing SDS-PAGE, 1 µg/ml m1022C3
[4] = target: H457-671 (D-MPD) human ADAM17 human Fc fusion (human) (UniProt P78536); experiment: as above

Measured: binding

B1: m1022C3 (murine anti-ADAM17 monoclonal antibody 1022C3, hybridoma I-4686) (antibody, V domains shown)
VH: QVTLKESGPGILQPSQTLSLTCSFSGFSLNTSGMGVSWIRQPSGKGLEWLAHIYWDDDKRYNPSLKSRLTISKDTSSNQVFLKITSLDTADTATYYCARRSHFGNYYYAMDYWGQGTSVTVTS
VL: DVQMTQTTSSLSASLGDRVTISCRASQDISSYLNWYQQKPDGTFKLLIFYTSRLQSGVPSKYSGSGSGTDYSLTISNLEQEDIAAYFCQQGKTLPLTFGAGTKLELK
modifications: N-glycosylated asparagine in CDR-H1
notes: Murine antibody from a hybridoma; also called mAb 1022C3; mAb m1022C3
binds: all assays above
